No constants are given. Whether binding was seen depends on the method and setting. In cells and extracts the contact can be indirect. Some results given as binding are weak or reduced against the parent protein; the word gives no strength.
Biological target: Tripartite motif protein 21 (TRIM21) (human (endogenous in THP-1)) (UniProt P19474)
Experiment: co-IP; anti-TRIM21 mouse monoclonal antibody cross-linked to protein A/G magnetic beads; 750 ug lysate of THP-1 cells harvested 30 min after infection with EHRL-4-opsonized E. chaffeensis; 1 h at RT; blots of the eluate

Protein sequences, listed by entry. Tags and fused reporters are not part of them.
UniProt P19474: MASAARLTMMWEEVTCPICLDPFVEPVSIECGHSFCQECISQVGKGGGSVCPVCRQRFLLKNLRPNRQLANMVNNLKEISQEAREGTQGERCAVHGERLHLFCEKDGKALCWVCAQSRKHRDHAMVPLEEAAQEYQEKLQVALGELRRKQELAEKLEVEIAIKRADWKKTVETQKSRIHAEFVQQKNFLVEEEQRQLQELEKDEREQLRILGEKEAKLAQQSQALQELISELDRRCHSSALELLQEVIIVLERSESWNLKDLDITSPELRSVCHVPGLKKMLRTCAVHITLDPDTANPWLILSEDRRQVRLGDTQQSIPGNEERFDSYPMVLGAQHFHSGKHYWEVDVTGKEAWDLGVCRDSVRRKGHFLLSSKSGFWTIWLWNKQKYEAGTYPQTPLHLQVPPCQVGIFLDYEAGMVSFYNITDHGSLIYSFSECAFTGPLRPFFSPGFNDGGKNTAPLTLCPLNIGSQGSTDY
UniProt Q676U5: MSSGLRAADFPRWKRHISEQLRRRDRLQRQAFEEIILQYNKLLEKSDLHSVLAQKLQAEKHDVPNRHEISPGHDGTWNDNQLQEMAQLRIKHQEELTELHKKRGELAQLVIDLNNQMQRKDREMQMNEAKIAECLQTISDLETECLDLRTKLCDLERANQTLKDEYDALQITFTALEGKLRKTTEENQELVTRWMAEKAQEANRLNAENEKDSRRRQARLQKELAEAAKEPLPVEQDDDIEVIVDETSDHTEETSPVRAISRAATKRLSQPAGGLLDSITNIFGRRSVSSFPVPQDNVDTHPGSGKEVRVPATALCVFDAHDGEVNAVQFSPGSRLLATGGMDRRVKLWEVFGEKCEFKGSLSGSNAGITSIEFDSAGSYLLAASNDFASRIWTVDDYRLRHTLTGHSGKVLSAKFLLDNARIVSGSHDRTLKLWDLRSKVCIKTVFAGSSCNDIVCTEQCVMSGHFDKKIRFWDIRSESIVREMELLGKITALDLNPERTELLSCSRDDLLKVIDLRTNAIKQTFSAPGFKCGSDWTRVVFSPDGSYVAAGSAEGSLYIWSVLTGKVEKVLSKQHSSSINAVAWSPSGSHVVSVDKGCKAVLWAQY
UniProt Q14457: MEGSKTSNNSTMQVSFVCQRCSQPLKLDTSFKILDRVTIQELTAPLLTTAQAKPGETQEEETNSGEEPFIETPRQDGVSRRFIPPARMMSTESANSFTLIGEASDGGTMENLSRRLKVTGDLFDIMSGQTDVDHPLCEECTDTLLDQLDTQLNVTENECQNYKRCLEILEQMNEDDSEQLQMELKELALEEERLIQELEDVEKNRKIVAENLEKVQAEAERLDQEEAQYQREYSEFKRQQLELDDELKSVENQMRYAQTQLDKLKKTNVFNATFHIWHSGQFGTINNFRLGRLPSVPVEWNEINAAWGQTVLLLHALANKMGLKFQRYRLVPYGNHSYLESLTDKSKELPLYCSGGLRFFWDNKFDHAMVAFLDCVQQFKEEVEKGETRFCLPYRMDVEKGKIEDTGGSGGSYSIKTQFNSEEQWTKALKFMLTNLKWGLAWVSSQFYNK

binding | Substance
binds | ATG16L1 (from UniProt Q676U5 1-607)
binds | beclin 1 (from UniProt Q14457 1-450)

From paper PMC6867850
